No constants are given. Whether binding was seen depends on the method and setting. In cells and extracts the contact can be indirect. A yes stands for co-enrichment or nearness to the bait. Other partners may have been found.
Target: hemoglobin subunit beta (HBB) (UniProt P68871)
Assay: affinity purification with mass spectrometry; IP-mass assay in HBB-overexpressing AC16 cells; HBB precipitated alone or with aconitine (AC); silver staining and mass spectrometry

By UniProt entry, the sequences of proteins in these tests, tags left out.
UniProt P68871: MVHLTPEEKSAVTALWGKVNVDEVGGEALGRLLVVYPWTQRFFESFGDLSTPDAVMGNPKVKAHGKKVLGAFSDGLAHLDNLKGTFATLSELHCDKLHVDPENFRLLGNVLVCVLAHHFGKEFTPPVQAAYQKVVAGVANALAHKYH

B1: ABHD5 (protein, UniProt Q8WTS1 1-349)
chain: MAAEEEEVDSADTGERSGWLTGWLPTWCPTSISHLKEAEEKMLKCVPCTYKKEPVRISNGNKIWTLKFSHNISNKTPLVLLHGFGGGLGLWALNFGDLCTNRPVYAFDLLGFGRSSRPRFDSDAEEVENQFVESIEEWRCALGLDKMILLGHNLGGFLAAAYSLKYPSRVNHLILVEPWGFPERPDLADQDRPIPVWIRALGAALTPFNPLAGLRIAGPFGLSLVQRLRPDFKRKYSSMFEDDTVTEYIYHCNVQTPSGETAFKNMTIPYGWAKRPMLQRIGKMHPDIPVSVIFGARSCIDGNSGTSIQSLRPHSYVKTIAILGAGHYVYADQPEEFNQKVKEICDTVD
With B1 the binding was “binds”.
